Data as given in patent publication US20250333486A1, “Anti-HSP90 alpha antibody and uses thereof” (NATIONAL HEALTH RESEARCH INSTITUTES, priority 2021, published 2025).

System: HSP90α
Test: Epitope determination by ELISA (domain, peptide and alanine scanning)
Type: binding, human
Details: for epitope sites of HSP90α (peptide scanning): 10-a.a. peptides of a.a. 21-272, ELISA; for a.a. residues critical for binding (alanine scanning): alanine-substituted 10-a.a. peptides, ELISA
Source text: The full-length HSP90α (a.a. 1-732) and its 3 truncated fragments including the N-terminal plus Linker domains (a.a. 1-272), N terminus through Middle domain (a.a. 1-629), and C-terminal domain (a.a. 630-732) were cloned, expressed, and purified. Briefly, each cDNA sequence with a 8×His-tag was amplified by PCR from the human ORF Clone (NM_005348) with the primers containing Xho I and BamH I sites. The PCR products were purified, digested with restriction enzymes, and then inserted into pET-23a plasmid (Sigma-Aldrich). The recombinant plasmids were then transformed into Escherichia coli ClearColi® competent cells (Lucigen Co., Middleton, WI, USA), and expressions of the recombinant constructs were stimulated by the addition of isopropyl-D-thiogalacto-pyranoside. The expressed histidine-tagged full-length and truncated HSP90α were further purified by using the Ni—NTA column (Qiagen, Germantown, MD, USA) according to the manufacturer's instructions. The purified proteins were finally dialyzed against the storage buffer consisting of 25 mM Tris-HCl (pH, 7.0), 50 mM NaCl, 0.1% Triton X-100, 50% glycerol, 1 mM EDTA, and 1 mM DTT, and protein concentrations were determined by the Bradford protein assay (Bio-Rad Laboratories, Hercules, USA).
At first, the domain scanning strategy was used to roughly delineate the HSP90α region responsible for the binding with our prepared antibodies. The above-mentioned full-length HSP90α and its 3 truncated fragments were employed to coat 96-well ELISA plates for assaying the binding activities of the tested mouse monoclonal antibodies. […] 1-272 region of HSP90α. Therefore, in peptide scanning strategy, a 132 peptide library was synthesized by Mimotopes Pty. Ltd. (Melbourne, Victoria, Australia), consisting of a series of 10-a.a. peptides offset by 2 a.a. to span the sequence of the a.a. 21-272 region of HSP90α. This series of peptides were used to coat 96-well ELISA plates for assaying the binding activities of the tested antibodies. […] These peptides were subjected to ELISA as described above.

Molecule	epitope sites of HSP90α (peptide scanning)	a.a. residues critical for binding (alanine scanning)
Clone-2-chimera: recombinant IgG1 antibody: Clone-2 VH and VL with human IgG constant domains (antibody, V domains shown) VH: EVQVVESGGGLVQPKGSLKLSCAASGFTFKTYAMNWVRQAPGKGLEWVARIRSKSRNYATYYADSVKDRFTISRDDSQFMFYLQMNNLKTEDTAMYYCVVGGSGFDYWGQGTTLTVSS VL: DVLMTQTPLSLPVSLGDQASISCRSSQSIVHSNGNTYLEWYLQKPGQSPKLLIYKVSNRFSGVPDRFSGSGSGTDFTLSISRVEAGDLGVYYCFQGSHVPWTFGGGTKLEIK	235[…]244 and 251[…]260	decreased drastically when E237, E239, K241, E253, and K255 were replaced with alanine
HH01: humanized anti-HSP90α IgG1 antibody, mutant of Clone-2-chimera; VH SEQ ID NO: 12, VL SEQ ID NO: 17 (antibody, V domains shown, Heavy chain variable region; Light chain variable region) VH: EVQLVESGGGLVQPGGSLRLSCAASGFTFKTYAMNWVRQAPGQGLEWVARIRSKSRNYATYYADSVKDRFTISRDDSKNQFYLQMNNLRTEDTAVYYCVVGGSGFDYWGQGTTLTVSS VL: DVVMTQTPLSLPVSLGDQASISCRSSQSIVHSNGNTYLEWYLQKPGQSPQLLIYKVSNRFSGVPDRFSGSGSGTDFTLTISSVEAEDLGVYYCFQGSHVPWTFGGGTKLEIK	these two sites could also serve as the binding epitopes	one more D240 was also responsible for the binding
